The target in this test is T1, GST-IRF4 fusion protein (mouse) (UniProt Q64287).
T1 sequence: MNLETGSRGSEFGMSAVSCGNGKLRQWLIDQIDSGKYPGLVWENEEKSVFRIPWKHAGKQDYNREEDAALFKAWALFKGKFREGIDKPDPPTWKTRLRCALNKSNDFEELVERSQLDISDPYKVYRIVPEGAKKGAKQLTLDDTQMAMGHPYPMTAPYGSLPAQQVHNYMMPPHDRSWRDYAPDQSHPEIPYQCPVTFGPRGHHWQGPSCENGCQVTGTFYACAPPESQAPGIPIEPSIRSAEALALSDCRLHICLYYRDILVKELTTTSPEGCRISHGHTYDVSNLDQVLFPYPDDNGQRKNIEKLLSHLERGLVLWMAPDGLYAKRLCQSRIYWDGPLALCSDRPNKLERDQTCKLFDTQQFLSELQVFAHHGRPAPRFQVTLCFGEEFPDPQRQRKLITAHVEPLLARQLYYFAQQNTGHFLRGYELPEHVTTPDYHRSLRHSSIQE
Description: condition: ≈100 µg His-KPNA6 on ≈100 µg immobilised GST-IRF4; pull-down; GST pulldown without βFaar: ≈100 µg GST or GST-IRF4 immobilised on 50 µL glutathione agarose, ≈100 µg His-KPNA6 added, overnight at 4 °C; eluted with 10 mM glutathione in PBS pH 8.0; immunoblotting; both purified.

Results are given in words; binding and its absence hold for the method and conditions named. Where a sequence is shown, tags or fusion partners need not be part of it.

As to “His-KPNA6 fusion protein (from UniProt O35345 1-536)”, the binding entry is given as “no binding”.

(Values after article PMC12463088.)
